The target in test [1] is Brahma-related gene 1 (BRG1) (human) (UniProt P51532). Briefly: co-IP; immunoprecipitation with a BRG1 antibody or a P300 antibody, partners detected in the precipitate; cells and buffer not stated.
Test [2] addresses E1A Binding Protein P300 (human (endogenous in CRC cells, cell line not stated)) (UniProt Q09472). Described as above.

Chains of the proteins cited; added tags and fusions are not shown. Lines headed by an entry give the natural chain unless they say otherwise; changes in a name come on top.
UniProt P51532: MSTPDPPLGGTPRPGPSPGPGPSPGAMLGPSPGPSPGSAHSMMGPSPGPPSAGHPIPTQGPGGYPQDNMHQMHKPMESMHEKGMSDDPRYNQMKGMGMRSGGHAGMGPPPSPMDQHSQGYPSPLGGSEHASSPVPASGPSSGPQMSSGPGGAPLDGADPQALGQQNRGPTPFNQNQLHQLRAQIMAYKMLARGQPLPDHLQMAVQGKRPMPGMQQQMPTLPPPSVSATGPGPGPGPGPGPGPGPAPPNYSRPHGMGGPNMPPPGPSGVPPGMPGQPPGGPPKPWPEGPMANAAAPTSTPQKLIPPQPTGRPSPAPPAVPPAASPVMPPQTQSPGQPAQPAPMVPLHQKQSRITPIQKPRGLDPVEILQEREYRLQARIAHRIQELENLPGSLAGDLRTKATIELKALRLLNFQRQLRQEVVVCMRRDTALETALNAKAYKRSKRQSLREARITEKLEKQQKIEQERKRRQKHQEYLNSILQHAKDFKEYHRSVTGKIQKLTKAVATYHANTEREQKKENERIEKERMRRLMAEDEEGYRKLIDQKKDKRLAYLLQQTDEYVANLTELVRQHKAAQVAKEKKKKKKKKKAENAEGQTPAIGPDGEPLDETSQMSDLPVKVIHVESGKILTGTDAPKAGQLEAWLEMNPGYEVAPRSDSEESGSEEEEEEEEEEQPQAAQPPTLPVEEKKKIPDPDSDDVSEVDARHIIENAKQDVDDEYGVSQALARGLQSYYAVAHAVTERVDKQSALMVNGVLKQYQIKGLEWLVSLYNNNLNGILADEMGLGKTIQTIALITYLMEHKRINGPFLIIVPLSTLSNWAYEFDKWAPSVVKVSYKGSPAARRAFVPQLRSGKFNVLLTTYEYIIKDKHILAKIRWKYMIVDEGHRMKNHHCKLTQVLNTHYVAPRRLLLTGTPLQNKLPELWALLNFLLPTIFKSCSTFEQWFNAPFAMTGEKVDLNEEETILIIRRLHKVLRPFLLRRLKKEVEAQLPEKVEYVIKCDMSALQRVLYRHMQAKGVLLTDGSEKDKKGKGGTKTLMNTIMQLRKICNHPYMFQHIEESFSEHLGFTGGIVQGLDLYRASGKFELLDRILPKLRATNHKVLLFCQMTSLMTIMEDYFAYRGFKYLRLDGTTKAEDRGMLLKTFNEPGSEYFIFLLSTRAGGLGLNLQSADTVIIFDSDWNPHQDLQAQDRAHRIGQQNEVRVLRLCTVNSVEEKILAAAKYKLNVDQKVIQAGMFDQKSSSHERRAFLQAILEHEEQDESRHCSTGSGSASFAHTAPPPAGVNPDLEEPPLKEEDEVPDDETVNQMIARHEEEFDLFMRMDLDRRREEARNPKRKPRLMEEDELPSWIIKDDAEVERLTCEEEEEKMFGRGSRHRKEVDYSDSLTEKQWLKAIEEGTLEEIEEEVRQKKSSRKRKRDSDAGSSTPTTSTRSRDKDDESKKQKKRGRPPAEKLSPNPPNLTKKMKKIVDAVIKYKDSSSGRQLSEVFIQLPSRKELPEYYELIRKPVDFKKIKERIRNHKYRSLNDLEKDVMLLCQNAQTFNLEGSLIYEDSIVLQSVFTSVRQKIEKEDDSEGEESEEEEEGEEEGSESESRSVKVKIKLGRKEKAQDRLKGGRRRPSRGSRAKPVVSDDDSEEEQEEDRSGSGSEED
UniProt Q09472: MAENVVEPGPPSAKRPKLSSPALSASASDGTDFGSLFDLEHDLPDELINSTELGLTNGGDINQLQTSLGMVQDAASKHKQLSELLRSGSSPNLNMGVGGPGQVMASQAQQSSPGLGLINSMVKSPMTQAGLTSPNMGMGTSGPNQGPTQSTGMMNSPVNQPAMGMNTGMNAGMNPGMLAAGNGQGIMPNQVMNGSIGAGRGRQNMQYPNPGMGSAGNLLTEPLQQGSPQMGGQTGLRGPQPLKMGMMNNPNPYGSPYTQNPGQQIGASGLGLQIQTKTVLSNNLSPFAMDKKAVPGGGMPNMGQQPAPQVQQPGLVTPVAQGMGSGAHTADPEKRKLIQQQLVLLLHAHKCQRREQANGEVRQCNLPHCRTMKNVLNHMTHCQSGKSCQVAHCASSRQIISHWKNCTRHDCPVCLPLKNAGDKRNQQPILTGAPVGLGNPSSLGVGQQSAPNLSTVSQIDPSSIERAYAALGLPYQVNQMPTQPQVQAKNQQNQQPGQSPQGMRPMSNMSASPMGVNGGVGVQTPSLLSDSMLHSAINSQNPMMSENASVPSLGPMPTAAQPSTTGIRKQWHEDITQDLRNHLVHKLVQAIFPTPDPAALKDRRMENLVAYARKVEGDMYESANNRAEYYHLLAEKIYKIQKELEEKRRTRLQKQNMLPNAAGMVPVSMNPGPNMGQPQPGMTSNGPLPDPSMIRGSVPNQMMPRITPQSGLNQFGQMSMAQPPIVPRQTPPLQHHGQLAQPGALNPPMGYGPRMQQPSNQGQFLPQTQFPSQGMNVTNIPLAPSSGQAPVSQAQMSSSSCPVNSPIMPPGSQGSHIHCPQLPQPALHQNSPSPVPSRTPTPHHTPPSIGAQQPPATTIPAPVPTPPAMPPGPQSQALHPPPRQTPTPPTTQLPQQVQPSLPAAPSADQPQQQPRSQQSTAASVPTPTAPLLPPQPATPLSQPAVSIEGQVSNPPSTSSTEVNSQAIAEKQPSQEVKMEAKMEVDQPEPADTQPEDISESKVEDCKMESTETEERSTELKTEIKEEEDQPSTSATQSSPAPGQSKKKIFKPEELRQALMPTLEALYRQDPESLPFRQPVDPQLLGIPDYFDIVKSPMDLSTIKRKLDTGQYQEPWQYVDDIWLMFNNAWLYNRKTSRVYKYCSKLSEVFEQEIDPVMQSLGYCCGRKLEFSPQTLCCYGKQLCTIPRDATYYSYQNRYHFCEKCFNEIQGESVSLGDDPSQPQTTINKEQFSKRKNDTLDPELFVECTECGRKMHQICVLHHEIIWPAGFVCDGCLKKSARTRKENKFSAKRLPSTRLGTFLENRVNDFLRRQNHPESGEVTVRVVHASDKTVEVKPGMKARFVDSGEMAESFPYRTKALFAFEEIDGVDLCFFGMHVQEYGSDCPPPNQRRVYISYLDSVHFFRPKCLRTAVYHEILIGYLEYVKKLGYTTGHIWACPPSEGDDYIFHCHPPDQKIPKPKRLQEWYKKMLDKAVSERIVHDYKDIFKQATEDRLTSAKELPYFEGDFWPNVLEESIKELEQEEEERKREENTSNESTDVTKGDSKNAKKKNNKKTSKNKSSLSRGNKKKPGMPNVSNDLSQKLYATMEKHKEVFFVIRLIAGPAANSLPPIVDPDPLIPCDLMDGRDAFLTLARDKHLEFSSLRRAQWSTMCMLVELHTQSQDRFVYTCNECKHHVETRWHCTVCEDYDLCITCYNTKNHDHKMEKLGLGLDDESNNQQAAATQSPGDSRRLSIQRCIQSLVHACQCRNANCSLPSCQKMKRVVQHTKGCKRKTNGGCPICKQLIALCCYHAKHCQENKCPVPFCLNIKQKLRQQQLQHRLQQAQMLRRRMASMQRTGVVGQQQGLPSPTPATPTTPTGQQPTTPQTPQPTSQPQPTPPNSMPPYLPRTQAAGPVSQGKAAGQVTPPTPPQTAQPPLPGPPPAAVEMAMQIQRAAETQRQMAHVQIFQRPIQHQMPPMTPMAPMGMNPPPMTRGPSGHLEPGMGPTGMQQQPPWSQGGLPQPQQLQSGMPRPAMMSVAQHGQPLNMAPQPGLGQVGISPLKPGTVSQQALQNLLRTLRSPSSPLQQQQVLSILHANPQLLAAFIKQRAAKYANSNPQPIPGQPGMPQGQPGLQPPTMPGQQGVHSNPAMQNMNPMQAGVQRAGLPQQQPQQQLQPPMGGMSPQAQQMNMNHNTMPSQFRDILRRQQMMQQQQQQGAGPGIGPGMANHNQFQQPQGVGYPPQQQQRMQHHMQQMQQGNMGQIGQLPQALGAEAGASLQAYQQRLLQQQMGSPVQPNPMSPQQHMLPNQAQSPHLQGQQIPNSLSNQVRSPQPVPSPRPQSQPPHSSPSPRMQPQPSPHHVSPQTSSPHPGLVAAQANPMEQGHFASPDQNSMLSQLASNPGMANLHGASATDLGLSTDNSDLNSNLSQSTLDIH
UniProt O15379: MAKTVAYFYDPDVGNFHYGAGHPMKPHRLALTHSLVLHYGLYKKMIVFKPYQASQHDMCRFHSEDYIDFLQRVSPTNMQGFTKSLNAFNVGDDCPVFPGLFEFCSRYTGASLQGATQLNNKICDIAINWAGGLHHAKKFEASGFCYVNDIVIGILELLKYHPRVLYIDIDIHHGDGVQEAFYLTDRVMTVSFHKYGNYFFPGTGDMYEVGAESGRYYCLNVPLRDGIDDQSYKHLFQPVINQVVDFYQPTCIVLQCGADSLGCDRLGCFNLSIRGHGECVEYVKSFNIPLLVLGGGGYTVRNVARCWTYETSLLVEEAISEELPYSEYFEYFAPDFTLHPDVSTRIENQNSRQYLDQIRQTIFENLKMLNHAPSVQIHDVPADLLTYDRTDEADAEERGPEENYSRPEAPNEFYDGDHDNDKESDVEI

No constants are given. Whether binding was seen depends on the method and setting. In cells and extracts the contact can be indirect. Some binding calls cover weakened binding; strength is not graded here.

In the case of “E1A Binding Protein P300 (from UniProt Q09472 1-2414)”, the binding entry in test [1] is “binds”.

In the case of “Histone deacetylase 3 (from UniProt O15379 1-428)”, the binding entry in test [1] is listed as “binds”.

B1: ETS transcription factor ERG (protein, UniProt P11308 1-479)
chain: MASTIKEALSVVSEDQSLFECAYGTPHLAKTEMTASSSSDYGQTSKMSPRVPQQDWLSQPPARVTIKMECNPSQVNGSRNSPDECSVAKGGKMVGSPDTVGMNYGSYMEEKHMPPPNMTTNERRVIVPADPTLWSTDHVRQWLEWAVKEYGLPDVNILLFQNIDGKELCKMTKDDFQRLTPSYNADILLSHLHYLRETPLPHLTSDDVDKALQNSPRLMHARNTGGAAFIFPNTSVYPEATQRITTRPDLPYEPPRRSAWTGHGHPTPQSKAAQPSPSTVPKTEDQRPQLDPYQILGPTSSRLANPGSGQIQLWQFLLELLSDSSNSSCITWEGTNGEFKMTDPDEVARRWGERKSKPNMNYDKLSRALRYYYDKNIMTKVHGKRYAYKFDFHGIAQALQPHPPESSLYKYPSDLPYMGSYHAHPQKMNFVAPHPPALPVTSSSFFAAPNPYWNSPTGGIYPNTRLPTSHMPSHLGTYY
With B1, in test [2], the binding entry was “binds”.

Values taken from paper PMC12261760.
